Each number is a percent effect as filed. How 0% and 100% were set is not recorded. Most values in the screen are low, and negative values occur. This is an unselected part of the compounds tested. A dash means the value is not listed here; it may have been measured.

Mtb growth Cornell: 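Whole-cell assay for inhibitors of Mycobacterium tuberculosis growth, labelled Cornell in the record; the read-out is not stated. The concentration is filed as 10 mM, unlikely as a test dose, so the dose is not known. The record gives no direction; compounds strong in two other growth screens of this library score well above the rest, so higher reads as stronger inhibition. About 53,000 compounds were tested under these conditions; 1.7% (about 900) showed 50% or more at least once.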
Mtb heat-shock: 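Assay on Mycobacterium tuberculosis, filed only as a heat shock assay from Cornell; the read-out is not stated. The concentration is filed as 10 mM, unlikely as a test dose, so the dose is not known. Higher reads as stronger inhibition (inferred: compounds with an IC50 in retests scored well above the rest). Of about 69,000 compounds tested this way, about 930 (1.4%) reached 50% or more in at least one test.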

SMILES,Mtb growth Cornell,Mtb heat-shock
CCN(C)S(=O)(=O)N1CCCC1CC(=O)c1cccs1 (stereo unspecified),-16.25%,-26.32%
CC(C)(C)N1CCCN(C(=O)c2csc(S(N)(=O)=O)c2)CC1,-12.76%,-8.887%
COC(=O)C1=C(C)N=C2SCC(=O)N2C1c1cn(C)nc1C (stereo unspecified),13.29%,11.29%
O=C(COC1CCCCC1)N1CCN(C(=O)Cc2ccccn2)CC1,-2.015%,-10.84%
Cc1ccccc1CSc1nc(N)cc(N2CCCC(C(N)=O)C2)n1 (stereo unspecified),-,10.28%
Cc1sc(NC(=O)CN(C)S(C)(=O)=O)c(C#N)c1C,3.744%,-0.1591%
CC(C)(C)c1cc(=O)[nH]c(-c2ccccc2CN2CCCCCC2)n1,0.1688%,13.9%
COc1ccc(NCC(=O)NCC(=O)N2CCCC2)c(C(F)(F)F)c1,7.57%,12.18%
O=c1cc2c(nn1CN1CCN(c3ccccc3)CC1)CCCC2,-7.528%,-1.37%
Cn1nccc1C(=O)N1CCC(c2nnsc2S(C)(=O)=O)CC1,-20.02%,-17.83%
Cc1nn(-c2ccccc2)cc1C(=O)N1CCCC(n2cccn2)C1 (stereo unspecified),-,-1.976%
CCc1ccc(C(=O)Nc2cc(N3CCNC3=O)ccc2Cl)o1,-,3.144%
O=C(O)C(F)(F)F.c1coc(COCc2ncn3c2CN(Cc2cccs2)CCC3)c1,23.36%,5.57%
CN1CCc2ncc(CNC(=O)c3cccn3C)n2CC1.O=C(O)C(F)(F)F,16.39%,-28.51%
CC1CC(NS(=O)(=O)c2ccc(C(F)(F)F)nc2)C1 (stereo unspecified),-,8.341%
CCn1c(CNC(=O)c2ccc(N(C)C)nc2)nc2ccccc21,-,-0.3148%
CC(C)N1CCCC(C(=O)NC(C)(C)c2nnc(N)s2)C1 (stereo unspecified),29.1%,6.964%
COc1ccccc1N1CCC(CNC(=O)CN2CSCC2=O)C1 (stereo unspecified),-4.515%,7.216%
CCCc1n[nH]c(C2CN(CCCOc3ccccc3)CCO2)n1 (stereo unspecified),-,-2.872%
CC(=O)NCC(=O)N1CCn2cc(CN(C)Cc3ccco3)nc2C1.O=C(O)C(F)(F)F,-21.48%,13.14%
CCC(NC(=O)CNC(=O)OC)c1cc(F)ccc1F (stereo unspecified),13.68%,-4.34%
COc1ccc(CCn2cnnc2[S+](C)[O-])cc1 (stereo unspecified),-31.18%,-3.948%
O=C(C1CCOCC1)N1CCc2ncc(CN3CCOCC3)n2CC1.O=C(O)C(F)(F)F,25.08%,-2.545%
Nc1ncccc1CN1C[C@@H](C(=O)O)[C@H](c2cccc(F)c2)C1,14.11%,7.122%
O=C(O)C(F)(F)F.[H][C@@]12CN(Cc3ccc(CC)o3)C[C@]1([H])OCCN2c1ccnc(N(C)C)n1,38.3%,-20.86%
Cc1nn(C(C)C)c(C)c1S(=O)(=O)Nc1ccc(C(=O)O)cc1,-6.232%,18.73%
O=c1[nH]nc(-c2cccs2)c2sc(N3CCOCC3)nc12,-2.219%,2.182%
COCCCNC(=O)N1CCN(C(=O)c2nsc3ccccc23)CC1,12.5%,-7.247%
CC(=O)Nc1ccc(CN(C)Cc2snnc2C)cc1,21.99%,5.48%
COc1cccc(CN2CCCC(c3nn(C)c4nccnc34)C2)c1.Cl (stereo unspecified),28.49%,4.419%
COc1ccc2nc(CNC(=O)c3cc(C(C)C)on3)[nH]c2c1,29.22%,1.4%
O=C(c1ccn(COc2ccc(F)cc2)n1)N1CCCCCC1,-,-6.443%
O=C(O)C(F)(F)F.O=C(c1ccsc1)N1CCc2onc(COc3ccccn3)c2C1,1.018%,-19.8%
Cc1cccc(NC(=O)N2CCC3(CCC(C(=O)N(C)C)O3)CC2)c1 (stereo unspecified),-3.897%,6.774%
CCC(=O)NC(CC)c1ccccc1C (stereo unspecified),-5.809%,11.27%
N#Cc1csc(CNCCOc2ccc(Cl)cn2)c1,2.4%,1.32%
Cc1nc(CNC(=O)C(C)Oc2ccccc2F)no1 (stereo unspecified),42.61%,10.39%
Cc1cc(=O)[nH]c(NCCNC(=O)c2ccccc2N2CCCC2)n1,-101.2%,-33.76%
CCCN1CCC(N2CCN(c3cccc(C)n3)CC2)CC1,8.783%,-10.8%
Cc1cnn(C2CCCN(C(=O)c3ccc(N4CCCC4)nc3)C2)c1 (stereo unspecified),-34.05%,-11.48%
CN(C)C(=O)CN1CCN(C(=O)c2cnn(-c3ccccc3Cl)c2)CC1,-8.815%,-5.567%
CC(C(=O)N1CCCCC1)n1nc(-c2cccs2)cc(N)c1=O (stereo unspecified),-24.07%,-3.848%
CC[C@@]1(O)CCN(C(=O)c2ccoc2)C[C@H]1O,-32.99%,-6.025%
Cc1cccc(S(=O)(=O)N2CSCC2C(=O)NCC2CC2)c1 (stereo unspecified),-20.58%,3.053%
Cc1cc(C)c(CNC(=O)NCCc2cccnc2)c(=O)[nH]1,8.729%,-25.27%
CC(C)(O)CN1CCN(C(=O)c2cc(Cl)cc3cccnc23)CC1,18.02%,25.95%
c1cc(N2CCC(CN3CCOCC3)CC2)c2sccc2n1,8.135%,-10.87%

Measurements from “University of Dundee, Small-Polar-MMV Screening Library” (2021), ChEMBL document CHEMBL3988442.